Structures can show the parent of a compound that is named as a salt. At least one compound was matched to its structure with a doubt left.
system: alfalfa; experiment: Nodulation tests on alfalfa (induction of the formation of root nodules); assay type: in vivo; settings: alfalfa plantlets; FIG. 2-4
Procedure: The sulfated products are tested on alfalfa for induction of the formation of root nodules, and on the model legume Medicago truncatula for induction of the expression of a symbiotic gene coding for an early nodulin. Alfalfa plantlets are grown under axenic conditions in test tubes on a nitrogen-poor agar medium (Demont-Caulet et al., Plant Physiol., 120, 83-92, 1999). Untreated plantlets serve as control. Natural Nod or synthetic LCO factors are added at the concentrations indicated.

Structure (SMILES)	nodulation activity relative to the benzamide derivative 3
CCCCCCCCCCCOc1cccc(C(=O)NC2[C@H](O[C@H]3C(O)C(NC(C)=O)[C@H](O[C@@H]4C(CO)O[C@@H](O[C@H]5C(O)C(NC(C)=O)C(O)O[C@H]5COS(=O)(=O)O)C(NC(C)=O)[C@H]4O)O[C@H]3CO)OC(CO)[C@@H](O)[C@@H]2O)c1 (stereo partly drawn) [compound 6, 2-acetamido-4-O-{2-acetamido-4-O-[2-acetamido-2-deoxy-4-O-(2-deoxy-2-(N-3-(undecanyloxy)benzoyl)amino-β-D-glucopyranosyl)-2-deoxy-β-D-glucopyranosyl]-β-D-glucopyranosyl}-2-deoxy-6-O-sulfo-D-glucopyranose, sodium salt]	slightly lower activity
CCCCCC/C=C\CCCOc1ccc(C(=O)NC2[C@H](O[C@H]3C(O)C(NC(C)=O)[C@H](O[C@@H]4C(CO)O[C@@H](O[C@H]5C(O)C(NC(C)=O)C(O)O[C@H]5COS(=O)(=O)O)C(NC(C)=O)[C@H]4O)O[C@H]3CO)OC(CO)[C@@H](O)[C@@H]2O)cc1 (stereo partly drawn) [compound 9, 2-acetamido-4-O-{2-acetamido-4-O-[2-acetamido-2-deoxy-4-O-(2-deoxy-2-(N-4-(undec-4Z-enyloxy)benzoyl)amino-β-D-glucopyranosyl)-β-D-glucopyranosyl]-2-deoxy-β-D-glucopyranosyl}-2-deoxy-6-O-sulfo-D-glucopyranose, sodium salt]	less active
CCCCCC/C=C\CCCOc1ccccc1C(=O)NC1[C@H](O[C@H]2C(O)C(NC(C)=O)[C@H](O[C@@H]3C(CO)O[C@@H](O[C@H]4C(O)C(NC(C)=O)C(O)O[C@H]4COS(=O)(=O)O)C(NC(C)=O)[C@H]3O)O[C@H]2CO)OC(CO)[C@@H](O)[C@@H]1O (stereo partly drawn) [compound 8, 2-acetamido-4-O-{2-acetamido-4-O-[2-acetamido-2-deoxy-4-O-(2-deoxy-2-(N-2-(undec-4Z-enyloxy)benzoyl)amino-β-D-glucopyranosyl)-β-D-glucopyranosyl]-2-deoxy-β-D-glucopyranosyl}-2-deoxy-6-O-sulfo-D-glucopyranose, sodium salt]	less active
